# Primary screen of a compound library

Sequences of proteins named here, by UniProt entry; tags and fusion partners are left off.
UniProt E9BF75, entry or part of it: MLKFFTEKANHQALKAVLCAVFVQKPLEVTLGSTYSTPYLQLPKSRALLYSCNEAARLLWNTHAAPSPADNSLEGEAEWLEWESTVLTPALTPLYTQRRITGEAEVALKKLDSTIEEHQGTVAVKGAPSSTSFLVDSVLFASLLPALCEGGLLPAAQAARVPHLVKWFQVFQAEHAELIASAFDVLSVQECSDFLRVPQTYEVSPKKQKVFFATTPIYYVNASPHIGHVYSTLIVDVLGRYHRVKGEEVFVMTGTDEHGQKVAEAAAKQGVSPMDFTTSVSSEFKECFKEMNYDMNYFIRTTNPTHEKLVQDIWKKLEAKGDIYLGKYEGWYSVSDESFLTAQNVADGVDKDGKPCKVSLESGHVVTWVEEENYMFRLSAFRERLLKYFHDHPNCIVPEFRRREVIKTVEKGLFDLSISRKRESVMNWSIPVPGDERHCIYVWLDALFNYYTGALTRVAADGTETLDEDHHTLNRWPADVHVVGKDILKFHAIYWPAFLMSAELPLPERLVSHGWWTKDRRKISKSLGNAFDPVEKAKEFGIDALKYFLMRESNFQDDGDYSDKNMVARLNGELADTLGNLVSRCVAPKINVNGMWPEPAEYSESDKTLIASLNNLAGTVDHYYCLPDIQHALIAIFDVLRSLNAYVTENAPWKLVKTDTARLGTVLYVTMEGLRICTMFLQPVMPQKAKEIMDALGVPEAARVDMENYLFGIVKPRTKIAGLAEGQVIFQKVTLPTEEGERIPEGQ

The values are deposited in ChEMBL (CHEMBL3988442, “University of Dundee, Small-Polar-MMV Screening Library” (2021)).

LdMetRS: 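Primary screen of methionyl-tRNA synthetase; the read-out is not stated. Target: Methionyl-tRNA synthetase (putative), Leishmania donovani (UniProt E9BF75). The test concentration is not given. The values are filed as inhibition. About 68,000 compounds were tested under these conditions; 0.035% (about 24) showed 50% or more at least once.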
Mtb heat-shock: 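Assay on Mycobacterium tuberculosis, filed only as a heat shock assay from Cornell; the read-out is not stated. The concentration is filed as 10 mM, unlikely as a test dose, so the dose is not known. Direction is inferred from retests: higher values go with stronger inhibition. Size under these conditions: about 69,000 compounds, about 930 of them at 50% or above in at least one test.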

Results are percentages, as filed. The controls that fix the scale are not given in the record; negative values are as filed. The compounds are a random part of those screened. A dash means the value is not listed here; it may have been measured.

SMILES	LdMetRS	Mtb heat-shock
Cc1nc(N2CCOCC2)nc2c1CCN(Cc1ccsc1)CC2.O=C(O)C(F)(F)F	-	3.426
Cc1ccsc1C(=O)N1CCCc2c(c(=O)n(C)n2C)C1	6.383	-11.33
Cn1cc(CN2CCCC3(CCCCN3S(C)(=O)=O)C2)cn1.O=C(O)C(F)(F)F (stereo not drawn)	-	-29.71
CN(Cc1csc(-c2ccccc2)n1)C(=O)CCNS(C)(=O)=O	14.09	-0.5923
NC(=O)N1CCc2cc(C(=O)O)c(-c3ccsc3)nc2CC1	12.68	-
Cn1c(CN2CCCC(N3CCNC3=O)C2)cc(=O)n(C)c1=O (stereo not drawn)	19.34	-16.68
Cc1ccc2c(c1)c(CNC(C)Cn1nc(C)cc1C)nn2C (stereo not drawn)	4.511	46.48
CCOc1ncccc1CNS(=O)(=O)c1ccc2c(c1)CCCC(=O)N2	8.01	-20.39
O=C(O)C(F)(F)F.[H][C@@]12COC[C@@H](C(=O)N3CCCC3)[C@]1([H])CN(c1ccncn1)C2	-	-22.95
CSc1ccc(C(C(=O)O)N2CCCC2)cc1 (stereo not drawn)	21.88	-20.66
CC(C)c1n[nH]c(C2CN(C(=O)CCn3ccccc3=O)CCO2)n1 (stereo not drawn)	18.75	-15.04
Cc1nc2c(c(=O)[nH]1)CCN(C(=O)c1[nH]nc3c1CC(C)CC3)C2 (stereo not drawn)	1.408	-11.72
[H][C@@]12CS(=O)(=O)C[C@]1([H])N(C(=O)c1ccc(Cl)cn1)CCN2CCC	-	-11.6
CNC(=O)N1CCC2(CC1)c1ncc(-c3cccc(F)c3)n1CCN2C	11.54	-
COc1cc(N2CCCC3(CCN(c4cncnc4)C3=O)C2)ncn1 (stereo not drawn)	12.89	6.389
Cc1cc(NCc2nnc3n2CCC3)n2nc(C)c(C)c2n1	17.69	-14.51
CN(C)CCN1C(=O)CCCC12CCCN(Cc1cccs1)C2 (stereo not drawn)	19.05	-
O=C(c1ccnnc1)N1CCC2(CC1)CN(c1ccccn1)CCO2	0.6667	-15
CCS(=O)(=O)NC(CCSC)C(=O)Nc1ccc(F)cc1 (stereo not drawn)	14.37	-19.38
CCOCC1CN(C(=O)c2ccncc2)Cc2nn(C)cc21 (stereo not drawn)	10.46	-
COc1c(C2CCCN2C(=O)c2ccc3[nH]cnc3c2)c(C)nn1C (stereo not drawn)	11.6	0.2117
[H][C@]12CCN(C(=O)Nc3ccccc3C)CC[C@@]1([H])S(=O)(=O)N(C)C2	-	7.341
COCC(=O)N1CCC2(CCN(c3cnn(C)c3)C2=O)C1 (stereo not drawn)	11.88	-39.84
COC[C@@H]1CC[C@H]2[C@H](CCN2S(=O)(=O)c2ccc(C)cc2)O1	8.125	-
CC(C)(C)c1cn2nc(N3CCCC3Cn3cccn3)sc2n1 (stereo not drawn)	3.133	-2.971
CS(=O)(=O)NC[C@]12COC[C@H]1CN(C(=O)CCc1ccccc1)C2	13.48	-
CCCc1noc(CCC(=O)Nc2cc(C(F)(F)F)c[nH]c2=O)n1	13.49	-21.44
Cc1noc(C)c1CN1CCCCC1CCc1ccc(O)cc1 (stereo not drawn)	6.25	-24.54
CC(C)CCN(C)Cn1ncc2cn(-c3ccccc3)nc2c1=O	3.014	-14.5
FC1(F)CCN(Cc2cccnc2)CC12CCN(c1cnccn1)C2.O=C(O)C(F)(F)F.O=C(O)C(F)(F)F.O=C(O)C(F)(F)F (stereo not drawn)	-	-18.3
O=C(O)c1nn(CC2CC2)c2c1CN(S(=O)(=O)c1cccnc1)CC2	10.13	5.5
Cc1nnc([C@@H]2CC[C@@H]3[C@@H](CCN3Cc3ccccn3)O2)o1	2.536	-
O=C(NCCCN1CCCCC1)c1ccc(-n2ccc3ccccc32)s1	16.67	102.3
NC(=O)c1ccc2c(c1)nc1n2CCN(Cc2cccnc2)C1	12.46	4.318
CN(C(=O)c1ccc(C#N)cc1)C1CCN(c2ccccn2)CC1	1.934	-12.11
CC(NC(=O)NC1CCN(Cc2ccncc2)CC1)c1cccc(F)c1 (stereo not drawn)	17.33	0.4328
c1cncc(CN2CCC(c3ccnc4nccn34)C2)c1 (stereo not drawn)	13.08	3.34
Cc1cccc2sc(NC(=O)CN3CCC(C)CC3)nc12	6.494	6.674
Cc1nccn1Cc1nnc(C2CCN(c3ccncc3F)CC2)n1C	1.529	-20.45
Cn1c(NC(=O)CNC(=O)C2CCCC2)nc2cc(Cl)ccc21	10.13	15.61
[H][C@@]12CN(C(=O)N3CCOCC3)C[C@@]1([H])N(CC(C)C)C(=O)CO2	-	-19.38
CC(C)c1nc(C2CCCN2Cc2ccon2)no1 (stereo not drawn)	4.843	-5.077
Cc1cc(NC(=O)CN2CCCC(Cn3nc(C)nc3C)C2)n(C)n1 (stereo not drawn)	13.16	-6.228
CS(=O)(=O)N1C[C@@H]2CC[C@H](C1)N(C/C=C/c1ccc(F)cc1)C2	20.3	-
COc1ccc(-c2noc(-c3ccc(N4CCC[C@H]4CO)nc3)n2)cc1	15.38	23.67
COCCO[C@H]1CCN(Cc2ccsc2)[C@H]1Cc1cccnc1.O=C(O)C(F)(F)F.O=C(O)C(F)(F)F	-	-33.79
CCc1nc(C2CCCN2CC(=O)Nc2c(C)nn(C)c2C)no1 (stereo not drawn)	4.433	-4.845
O=C(O)C(F)(F)F.O=C(O)C(F)(F)F.[H][C@@]12CN(Cc3cccc(F)c3)C[C@]1([H])CN(c1ncc(F)cn1)C2	-	-23.02
CC/N=c1\nc(NCC)nc2n1C(O)(Nc1cc(Cl)ccc1Cl)CS2 (stereo not drawn)	2.439	-13.25
COc1ccc(COCC(O)CN(C)c2ccc(C)cc2C)cc1 (stereo not drawn)	10.14	-11.78
[H][C@@]12CS(=O)(=O)C[C@]1([H])N(C(=O)c1ccc3c(c1)ncn3C)CCN2CCO	-	-7.789
CCn1c(C(=O)N2CCCN(CC(N)=O)CC2)cc2ccccc21	26.7	2.291
CCN1CCC(N2C[C@@H](C(=O)O)[C@H](c3cccc(OC)c3)C2)CC1	9.893	12.77
Cc1cccc(NC(=O)CN2C(=O)CC(C)(C)c3ccccc32)n1	19.89	-2.777
O=C(O)C(F)(F)F.O=C(O)C(F)(F)F.[H][C@@]12CCCO[C@]1([H])[C@@H](NC(=O)c1cccnc1)CN2Cc1cccs1	-	-17.53
O=C1NCCCCC1NCc1csc(-c2ccccn2)n1 (stereo not drawn)	5.986	-
CCN1CCC2(C=C(C(=O)NC3CC3)c3ccccc32)CC1	8.418	-
O=C(O)C(F)(F)F.[H][C@@]12CCN(CCc3ccccc3)C[C@@]1([H])[C@H](C(=O)NC1CCC1)CCO2	-	-4.219
Cn1nc(CNC(=O)C2CC2)cc1C1CC1	14.71	30.73
c1cnc2c(c1)nc1n2[C@@H](CNC2CCOCC2)COC1	9.446	-6.803
Cc1cc(C(=O)N2CCCN(Cc3nccn3C(C)C)CC2)no1	17.71	2.941
CN(C)CCC1CCN(c2cc(N3CCCC3CO)ncn2)CC1 (stereo not drawn)	1.397	-34.13
Cc1c(C)n(Cc2ccccn2)c2nc3c(c(N)c12)CCCC3	15.35	11.42
C[S+]([O-])c1nncn1CC(=O)c1ccc2c(c1)CCC2 (stereo not drawn)	2.135	-3.662
CC(C)N1CCC2(CCNCC2)C1=O.Cl	-	-11.34
Clc1cc(N2CCC(N3CCCC3)CC2)nc2[nH]ccc12	25.86	2.896
O=C(c1ccco1)N1CC[C@@H]2O[C@@H](COCCN3CCCC3)CC[C@@H]21	7.333	-
Clc1ccc(CNc2ccc(Cl)cn2)cc1	7.258	13.09
CCc1nc(CN(C)C2CCN(CC(F)(F)F)C2)no1 (stereo not drawn)	16.27	-13.16
O=S(=O)(NCCSc1nncn1C1CC1)c1ccccc1	3.727	-5.929
COc1c(CNC2CCc3cc(F)ccc32)c(C(C)C)nn1C (stereo not drawn)	4.372	-7.375